# In PubChem BioAssay AID540276 (National Center for Advancing Translational Sciences (NCATS), 2011):
# Hit rate of the full screen: of about 300,000 compounds, about 5,400 (1.8%) were called active. The shares of active, inactive and inconclusive entries below differ from those in the screen. Calls come from the whole dose curve; tested in HEK293 cells. A potency beside an inconclusive call is a rough fit, not a confirmed value.
# Experiment: qHTS for inhibitors of binding or entry into cells for Marburg Virus
# Settings: Marburg virus pseudotyped entry inhibition, cell reporter; series mostly up to 37.8 µM
# Potency is the fitted concentration of half-maximal effect.
row,SMILES,Potency
1,O=C(CCSc1ccccc1)NNC(=O)c1ccccc1F,inactive
2,COc1ccc(N2C3=C(C(=O)CC(C)(C)C3)C(c3cnn(C)c3)C3=C2CC(C)(C)CC3=O)cc1,inactive
3,COc1ccc2ccccc2c1CN1CCN(C(=O)c2ccccc2)CC1,"inconclusive: 35.5 µM [inhibitor, single point]"
4,CC(C)N1CCN(c2ccc(OCC3COC(Cn4cncn4)(c4ccc(Cl)cc4Cl)O3)cc2)CC1 (centres undefined),"inconclusive: 20 µM [inhibitor, single point]"
5,Cc1cc(C(F)(F)F)n2nc(-c3ccc(Br)cc3)cc2n1,inactive
6,c1ccc(C(c2nnnn2C2CCCC2)N2CCN(c3ccccc3)CC2)cc1 (centres undefined),"inconclusive: 12.6 µM [inhibitor, partial curve, poor fit]"
7,O=C(Nc1cccc(/C=C/c2ccccn2)c1)c1ccc(-n2cncn2)cc1,"inconclusive: 11.2 µM [inhibitor, partial curve, poor fit]"
8,COc1ccc(-c2nn(-c3ccccc3)cc2N)cc1,"inconclusive: 3.55 µM [activator, single point]"
9,O=C(NCc1ccc(F)cc1)NC(=O)c1ccc(Cl)cc1,"inconclusive: 5.62 µM [inhibitor, partial curve, poor fit]"
10,Cc1cc(N/N=C/c2c(O)ccc3ccccc23)nc(-c2ccccc2O)n1,inactive
11,Cc1cc(NC(=O)Nc2ccccc2F)ccc1Br,"inconclusive: 8.91 µM [inhibitor, partial curve, poor fit]"
12,Cc1ccccc1OCc1nnc(SCc2cc(=O)[nH]c3ccccc23)n1-c1ccccc1,"inconclusive: 2.82 µM [inhibitor, full curve, poor fit]"
13,O=C(Nc1nc(-c2cc(F)ccc2F)cs1)c1cccc(N2C(=O)CCC2=O)c1,"inconclusive: 0.316 µM [inhibitor, partial curve, poor fit]"
14,O=C(COc1ccc(Br)cc1)N(Cc1ccccc1)c1ccccn1,"inconclusive: 3.16 µM [inhibitor, single point]"
15,CCNc1nc(NC(C)C)nc(SCCOC(=O)c2ccccc2)n1,"inconclusive: 2.91 µM [activator, single point]"
16,COc1ccc(/C=N\NC(=O)c2ccccc2Br)cc1COc1c(F)c(F)cc(F)c1F,active: 6.31 µM
17,COCCN1C(=O)N(C)[C@@H](c2ccccc2)C(C(C)=O)=C1C,inconclusive: 0.0009 µM [inhibitor]
18,Cc1cccc(Cn2c(=O)c3c(nc4n3CCCN4Cc3ccccc3)n(C)c2=O)c1,"inconclusive: 35.5 µM [inhibitor, single point]"
19,S=C(Nc1ccc(Cl)c(Cl)c1)N1CCCC1,"inconclusive: 5.01 µM [activator, single point]"
20,COCCNC(=O)C1CC(c2cccc(OC)c2)=NO1 (centres undefined),"inconclusive: 20 µM [activator, partial curve, poor fit]"
21,COc1ccccc1N1CCN(C(=O)CN2C(=O)c3ccccc3S2(=O)=O)CC1,"inconclusive: 14.1 µM [inhibitor, partial curve, poor fit]"
22,O=C(O)C1C2C=CC(O2)C1C(=O)Nc1ccc(S(=O)(=O)Nc2ccccc2)cc1 (centres undefined),inactive
23,CC1=C(C(=O)Nc2ccc(C(=O)NCCC(C)C)cc2)SCCO1,inactive

row,SMILES,Potency
1,Cc1cccc(C(=O)Nc2ccc(NC(=O)CN3CCOCC3)cc2)c1,"inconclusive: 35.5 µM [activator, single point]"
2,Cc1cc2oc(=O)sc2cc1NS(=O)(=O)c1ccccc1,inactive
3,COc1ccc(C(=O)/C=C/c2ccc(OC3CSC3)cc2)cc1,"inconclusive: 2.24 µM [inhibitor, single point]"
4,Clc1cccc2sc(N3CCCC3)nc12,inactive
5,CC(NC(=S)Nc1ccccc1C(F)(F)F)C1CC2CCC1C2 (centres undefined),"inconclusive: 3.55 µM [activator, single point]"
6,Cc1cc(C)nc(/N=C(\N)Nc2ccc(-c3ccccc3)cc2)n1,"inconclusive: 15.8 µM [inhibitor, single point]"
7,O=c1c2c3c(sc2n2cnnc2n1-c1ccccc1)N(Cc1ccccc1)CCC3,inactive
8,CC1=CC2=NC(=O)/C(=C\c3cccn3CCOc3ccccc3C)C(=N)N2O1,"inconclusive: 25.9 µM [inhibitor, single point]"
9,CCOC(=O)c1c(C)n(-c2ccc(C)cc2)c2c(C(C(C)=O)C(=O)O)c(Br)c(O)c(O)c12 (centres undefined),inactive
10,Cc1cc(Cl)ccc1Nc1ncccc1C(N)=O,"inconclusive: 10 µM [activator, single point]"
11,O=C(c1cc2ccccc2oc1=O)N1CCN(c2ccc(N3CCOCC3)nn2)CC1,inactive
12,COc1c(Cl)cccc1-c1cn2ccc(C)cc2n1,"inconclusive: 8.91 µM [inhibitor, partial curve, poor fit]"
13,CN(Cc1nccn1C)C(=O)c1ccc2nc(Cc3ccccc3F)oc2c1,"inconclusive: 1.78 µM [activator, full curve, poor fit]"
14,Cc1cc(=O)n2[nH]c(SCc3ccccc3Cl)nc2n1,inactive
15,Oc1nc(Nc2ccc(F)cc2)sc1/C=C1\C=Nc2ccccc21,"inconclusive: 12.6 µM [inhibitor, partial curve, poor fit]"
16,CCC1(CC)NC(=O)N(CC(=O)N2N=C(c3ccc(Cl)cc3)CC2c2ccco2)C1=O (centres undefined),"inconclusive: 11.2 µM [inhibitor, single point]"
17,C/C(=N\NC(=O)CSc1nc(C)cc(C)n1)c1ccc2c(c1)OCCO2,inactive
18,COC(=O)c1ccc(C(=O)OC)c(NC(=S)N2CCCC(CO)C2)c1 (centres undefined),"inconclusive: 35.5 µM [inhibitor, single point]"
19,CC(C)(C)c1ccc(C(=O)OCCNC(=O)c2c(Cl)nc3ccccn23)cc1,"inconclusive: 32.6 µM [inhibitor, single point]"
20,c1ccc(SCc2nc(-c3ccccn3)no2)cc1,"inconclusive: 5.62 µM [activator, single point]"
21,COC(=O)CNc1c(-c2ccccc2)nc2ccc(Br)cn12,inactive
22,Cc1cc(OC(C)C(=O)Nc2c(C(=O)c3ccc(F)cc3)oc3ccccc23)ccc1Cl (centres undefined),inactive
23,O=C(CCl)Nc1cccc(S(=O)(=O)N2CCCCCC2)c1,"inconclusive: 3.16 µM [inhibitor, full curve, poor fit]"

# Another view of 20 compounds above.
row	SMILES	Potency
1	Cc1cccc(C(=O)Nc2ccc(NC(=O)CN3CCOCC3)cc2)c1	inconclusive: 35.5 µM [activator, single point]
2	Cc1cc2oc(=O)sc2cc1NS(=O)(=O)c1ccccc1	inactive
3	COc1ccc(C(=O)/C=C/c2ccc(OC3CSC3)cc2)cc1	inconclusive: 2.24 µM [inhibitor, single point]
4	Clc1cccc2sc(N3CCCC3)nc12	inactive
5	CC(NC(=S)Nc1ccccc1C(F)(F)F)C1CC2CCC1C2 (centres undefined)	inconclusive: 3.55 µM [activator, single point]
6	Cc1cc(C)nc(/N=C(\N)Nc2ccc(-c3ccccc3)cc2)n1	inconclusive: 15.8 µM [inhibitor, single point]
7	O=c1c2c3c(sc2n2cnnc2n1-c1ccccc1)N(Cc1ccccc1)CCC3	inactive
8	CC1=CC2=NC(=O)/C(=C\c3cccn3CCOc3ccccc3C)C(=N)N2O1	inconclusive: 25.9 µM [inhibitor, single point]
9	CCOC(=O)c1c(C)n(-c2ccc(C)cc2)c2c(C(C(C)=O)C(=O)O)c(Br)c(O)c(O)c12 (centres undefined)	inactive
10	Cc1cc(Cl)ccc1Nc1ncccc1C(N)=O	inconclusive: 10 µM [activator, single point]
11	O=C(c1cc2ccccc2oc1=O)N1CCN(c2ccc(N3CCOCC3)nn2)CC1	inactive
12	COc1c(Cl)cccc1-c1cn2ccc(C)cc2n1	inconclusive: 8.91 µM [inhibitor, partial curve, poor fit]
13	CN(Cc1nccn1C)C(=O)c1ccc2nc(Cc3ccccc3F)oc2c1	inconclusive: 1.78 µM [activator, full curve, poor fit]
14	Cc1cc(=O)n2[nH]c(SCc3ccccc3Cl)nc2n1	inactive
15	Oc1nc(Nc2ccc(F)cc2)sc1/C=C1\C=Nc2ccccc21	inconclusive: 12.6 µM [inhibitor, partial curve, poor fit]
16	CCC1(CC)NC(=O)N(CC(=O)N2N=C(c3ccc(Cl)cc3)CC2c2ccco2)C1=O (centres undefined)	inconclusive: 11.2 µM [inhibitor, single point]
17	C/C(=N\NC(=O)CSc1nc(C)cc(C)n1)c1ccc2c(c1)OCCO2	inactive
18	COC(=O)c1ccc(C(=O)OC)c(NC(=S)N2CCCC(CO)C2)c1 (centres undefined)	inconclusive: 35.5 µM [inhibitor, single point]
19	CC(C)(C)c1ccc(C(=O)OCCNC(=O)c2c(Cl)nc3ccccn23)cc1	inconclusive: 32.6 µM [inhibitor, single point]
20	c1ccc(SCc2nc(-c3ccccn3)no2)cc1	inconclusive: 5.62 µM [activator, single point]

# Further entries follow:

row,SMILES,Potency
1,CCc1cc2c(=O)c(-c3nc4ccccc4[nH]3)coc2cc1OC(=O)N1CCOCC1,inactive
2,Cc1ccc(C)c(OCC(=O)NCCNC(=O)COc2cc(C)ccc2C)c1,inactive
3,O=C(/C=C/c1ccc2c(c1)OCO2)NCCCN1CCOCC1,"inconclusive: 3.66 µM [activator, single point]"
4,CC(C)c1nc(SCC(=O)Nc2c[nH]c(=O)[nH]c2=O)c2cnn(-c3ccccc3)c2n1,"inconclusive: 3.98 µM [inhibitor, full curve, poor fit]"
5,Cc1nn(CC(=O)NCc2cccs2)c(=O)c2nn(-c3ccccc3)c(C)c12,inactive
6,COc1ccccc1CNC(=O)COC(=O)c1n[nH]c2ccccc12,inactive
7,CC(=O)c1c(C)[nH]c(C(=O)CSc2nnc(-c3ccccc3)o2)c1C,"inconclusive: 12.6 µM [inhibitor, partial curve]"
8,CCN(CC)C(=O)c1cc(-c2ccc3c(c2)OCO3)on1,"inconclusive: 2.24 µM [activator, full curve]"
9,Cc1ccc2nc(-c3ccncc3)c(NC3CCCCC3)n2c1,inactive
10,CCOc1ccc(-n2c(SCC(=O)NC3CCS(=O)(=O)C3)nnc2-c2cccnc2)cc1 (centres undefined),"inconclusive: 35.5 µM [activator, single point]"
11,O=C1c2cccc(OCc3ccc(F)cc3)c2CCN1Cc1ccc(F)cc1,"inconclusive: 25.1 µM [inhibitor, single point]"
12,COc1ccc(OC)c(CNC(=O)c2cc3c(-c4ccc(OC)c(OC)c4)nn(C)c3s2)c1,"inconclusive: 1.41 µM [inhibitor, partial curve, poor fit]"
13,Cc1nc2c(-c3ccccc3)cnn2c(N2CCOCC2)c1C,"inconclusive: 35.5 µM [inhibitor, partial curve, poor fit]"
14,COCCN1CCN(c2cc(-c3ccccc3)nc3cc(-c4cccc(F)c4)nn23)CC1,"inconclusive: 35.5 µM [inhibitor, single point]"
15,Cc1cccc(NC(=O)CSCC(=O)N(CCC(C)C)c2c(N)n(Cc3ccccc3)c(=O)[nH]c2=O)c1,"inconclusive: 17.8 µM [inhibitor, single point]"
16,CCOC(=O)c1ccc(OCCOc2ccccc2C)cc1,inactive
17,COc1ccc2c(=O)c(-c3ccc4c(c3)OCO4)coc2c1,"inconclusive: 2.59 µM [inhibitor, full curve, poor fit]"
18,Cc1ccc(OCCCC(=O)NC(C)c2ccccc2)cc1 (centres undefined),"inconclusive: 3.16 µM [activator, single point]"
19,C=CCSc1nc(N)c(C(=O)Nc2ccccc2)cc1C#N,"inconclusive: 8.2 µM [inhibitor, single point]"
20,Cc1ccc2c(c1)-c1c(ssc1=S)C(C)(C)N2C(=O)c1ccco1,"inconclusive: 8.2 µM [inhibitor, partial curve]"
21,Cc1cc(C(=O)Nc2nc3c(s2)CCCC3)cs1,"inconclusive: 11.6 µM [inhibitor, partial curve, poor fit]"
22,Cc1ccc(S(=O)(=O)NC2c3cccc4cccc(c34)C2Sc2nc(C)cc(C)n2)cc1 (centres undefined),active: 17.8 µM
23,COC(=O)C[C@H]1c2ccccc2[C@@H]2C(=C[C@@H](C)[C@H]3C(=O)NC(=O)[C@H]32)N1C(=O)OC,inactive
